Results: publication PMC11820759

Chains of the proteins cited; added tags and fusions are not shown. A line that says so, or that is headed by a name, gives the form on record, which may keep a tag or linker.
His-WRKY28 (BnaA03.WRKY28) (Brassica napus), one chain, as listed by the source: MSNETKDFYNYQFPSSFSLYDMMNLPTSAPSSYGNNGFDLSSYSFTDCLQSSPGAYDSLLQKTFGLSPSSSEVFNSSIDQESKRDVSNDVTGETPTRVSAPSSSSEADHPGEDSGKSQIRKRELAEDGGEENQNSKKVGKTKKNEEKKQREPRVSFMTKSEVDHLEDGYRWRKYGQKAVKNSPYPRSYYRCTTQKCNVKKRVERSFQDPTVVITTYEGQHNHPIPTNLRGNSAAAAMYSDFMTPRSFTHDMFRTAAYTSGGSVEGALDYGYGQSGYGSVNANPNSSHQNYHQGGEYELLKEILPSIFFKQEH

Tested on: His-WRKY28 (BnaA03.WRKY28) (Brassica napus)
Test: EMSA
Conditions: 25 nM probe; EMSA/Gel-shift Binding Buffer (Beyotime GS005), 25 nM Cy5 probe, 23 °C 30 min; 6% native PAGE, 0.5x TBE pH 8.3, 4 °C; salt and binding pH not stated; recombinant protein; protein details: His; label: Cy5

## CAACATATCAAACAATCATCAGAGAGATCATCATCAATTCCTACAA (double strand) [mA01/C01.BRC1-probe]
  binding result: no binding

For at least one entry, the source does not settle the construct or the ends of the probe. A negative result means that nothing was seen under these conditions.
